In the supplement of paper PMC12067093, “Discovery and optimisation of a covalent ligand for TRIM25 and its application to targeted protein ubiquitination” (Chemical Science, 2025):
The other results are listed elsewhere or left out.

These targets were tested with Cc1cc(ccc1-c1ccccc1)C(=O)N1CCCN(CC1)C(=O)CCl [compound 10] (assay: probe-labelled cysteine peptide fold change vs DMSO (competition) (log2 fold change); higher = less target engagement (more negative = stronger competition)). Details: 50 µM; THP-1; incubation time: 4 h.
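Also: competitive profiling in live THP-1 cells: cysteine peptides tagged with an iodoacetamide desthiobiotin (IA-DTB) probe, intensity after compound treatment relative to DMSO-treated cells.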

Row | Target | probe-labelled cysteine peptide fold change
1 | RAP1GAP2_Q684P5_171_DHLNFYCTGSSLGNLILSVK (UniProt Q684P5) | 0.0475
2 | RANBP9_Q96S59_719_SGIGSCAFATVEDYLH (UniProt Q96S59) | -0.121
3 | RAPGEF1_Q13905_1024_CFQQAHYDMR (UniProt Q13905) | -0.218
4 | RANGAP1_P46060_303_ELNLSFCEIKR (UniProt P46060) | -0.202
5 | RBM39_Q14498_478_CPSIAAAIAAVNALHGR (UniProt Q14498) | -0.00341
6 | RASAL3_Q86YV0_614_LLCPAILAPSLFGLAPDHPAPGPAR (UniProt Q86YV0) | 0.0962
7 | RANBP6_O60518_118_LCDIFAVLAR (UniProt O60518) | 0.252
8 | RCHY1_Q96PM5_136_CIENVSR (UniProt Q96PM5) | -0.312
9 | RBM27_Q9P2N5_279_CRDYDER (UniProt Q9P2N5) | -0.0033
10 | RBBP4_Q09028_203_EGYGLSWNPNLSGHLLSASDDHTICLWDISAVPK (UniProt Q09028) | 0.0207
11 | RANBP2_P49792_1196_TGEEDEEEFFCNR (UniProt P49792) | -0.193
12 | RAP1GDS1_P52306_560+567_YNSMVLICALMGSECLHK (UniProt P52306) | -0.483
13 | RANBP3_Q9H6Z4_406_VEVITGEEAESNVLQMQCK (UniProt Q9H6Z4) | 0.146
14 | RDH10_Q8IZV5_170_TMMVNCHAHFWTTK (UniProt Q8IZV5) | -0.182
15 | RBM19_Q9Y4C8_293_EPTTCHTVK (UniProt Q9Y4C8) | -0.0947
16 | RCC1L_Q96I51_401_CGLSHFAALTNK (UniProt Q96I51) | -0.182
17 | RCC2_Q9P258_280_GNLYSFGCPEYGQLGHNSDGK (UniProt Q9P258) | -0.13
18 | RARS_P54136_115_FGDYQCNSAMGISQMLK (UniProt P54136) | -0.216
19 | RAP1A_P62834_141_QWCNCAFLESSAK (UniProt P62834) | -0.308
20 | RBBP5_Q15291_233_EILTCGR (UniProt Q15291) | 0.0901

Row | Target | probe-labelled cysteine peptide fold change
21 | RBM5_P52756_187_FEDWLCNK (UniProt P52756) | -0.114
22 | RDH13_Q8NBN7_75_CEAAAK (UniProt Q8NBN7) | -0.169
23 | RBM25_P49756_132_LQAFGFCEYK (UniProt P49756) | 0.592
24 | RBBP7_Q16576_166_HPAKPDPSGECNPDLR (UniProt Q16576) | 0.0678
25 | RCHY1_Q96PM5_87_IQHAQQTCEECSTLFGEYYCDICHLFDK (UniProt Q96PM5) | -0.293
26 | RECQL4_O94761_636_MGVHCFLGLTATATR (UniProt O94761) | -0.192
27 | RB1_P06400_278_IIEVLCK (UniProt P06400) | 0.119
28 | RC3H1_Q5TC82_33_KPISLGCGHTVCK (UniProt Q5TC82) | -0.023
29 | RB1CC1_Q8TDY2_282_ESCQSTVHQQDETTIDTK (UniProt Q8TDY2) | -0.693
30 | RBBP7_Q16576_277_PSHLVDAHTAEVNCLSFNPYSEFILATGSADK (UniProt Q16576) | 0.371
31 | RCHY1_Q96PM5_65_EVQCINCEK (UniProt Q96PM5) | -0.314
32 | RBKS_Q9H477_151_VMVCQLEITPATSLEALTMAR (UniProt Q9H477) | -0.0743
33 | RANBP2_P49792_3221_ITITECGQI (UniProt P49792) | 0.161
34 | RBM12B_Q8IXT5_837_CPSDEDFR (UniProt Q8IXT5) | -0.0704
35 | RBM34_P42696_310_HFLDCGSIMAVR (UniProt P42696) | 0.0976
36 | RAPGEF1_Q13905_817_CATSSQPLAAR (UniProt Q13905) | -0.391
37 | RASGRP2_Q7LDG7_548_DRLSVECR (UniProt Q7LDG7) | -0.413
38 | RBPJ_Q06330_252_LVCSVTGMALPR (UniProt Q06330) | -0.00644
39 | RCC1L_Q96I51_237_MQDFDGQVVQVACGQDHSLFLTDK (UniProt Q96I51) | 0.0663
40 | RCL1_Q9Y2P8_292_GGCVDSTNQSLALLLMTLGQQDVSK (UniProt Q9Y2P8) | 0.0463
